According to PMC7852611:
Results are given in words; binding and its absence hold for the method and conditions named. Binding seen in cells or lysates may run through a third protein. Some entries that bind do so weakly or less than the wild type. For some assays here: Tags and fused reporters may be left off the sequences shown.

Amino acid sequences for entries named in this document (tags omitted).
UniProt P35222: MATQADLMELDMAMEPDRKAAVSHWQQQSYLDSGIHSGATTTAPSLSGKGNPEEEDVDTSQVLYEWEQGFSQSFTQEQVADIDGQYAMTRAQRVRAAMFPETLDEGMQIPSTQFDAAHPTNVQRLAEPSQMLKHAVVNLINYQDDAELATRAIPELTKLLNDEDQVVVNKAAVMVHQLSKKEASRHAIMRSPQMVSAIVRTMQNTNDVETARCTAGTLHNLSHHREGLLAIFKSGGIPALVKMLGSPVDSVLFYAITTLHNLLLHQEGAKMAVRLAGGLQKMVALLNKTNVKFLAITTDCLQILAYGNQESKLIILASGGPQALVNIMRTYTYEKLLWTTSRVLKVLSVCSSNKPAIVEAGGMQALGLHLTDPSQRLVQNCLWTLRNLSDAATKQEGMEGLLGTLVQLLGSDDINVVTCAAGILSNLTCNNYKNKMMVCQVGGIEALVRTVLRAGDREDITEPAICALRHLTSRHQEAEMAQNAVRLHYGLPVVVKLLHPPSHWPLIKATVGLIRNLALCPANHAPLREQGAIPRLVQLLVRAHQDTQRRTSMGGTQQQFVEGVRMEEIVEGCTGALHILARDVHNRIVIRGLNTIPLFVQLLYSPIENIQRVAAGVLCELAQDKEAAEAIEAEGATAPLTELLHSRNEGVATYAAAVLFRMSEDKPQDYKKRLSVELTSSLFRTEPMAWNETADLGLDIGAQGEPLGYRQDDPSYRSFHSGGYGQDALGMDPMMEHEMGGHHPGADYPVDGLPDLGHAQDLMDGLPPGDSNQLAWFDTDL

Columns and labels:
[1] = target: T1, Flag-AQP1 (UniProt P29972); assay: co-IP; lysates of MDA-MB-231 cells stably expressing Flag-AQP1 or Flag-labeled AQP1 fragments; anti-flag M2 affinity gel, eluted with flag peptides; western blot for β-catenin
T1 sequence: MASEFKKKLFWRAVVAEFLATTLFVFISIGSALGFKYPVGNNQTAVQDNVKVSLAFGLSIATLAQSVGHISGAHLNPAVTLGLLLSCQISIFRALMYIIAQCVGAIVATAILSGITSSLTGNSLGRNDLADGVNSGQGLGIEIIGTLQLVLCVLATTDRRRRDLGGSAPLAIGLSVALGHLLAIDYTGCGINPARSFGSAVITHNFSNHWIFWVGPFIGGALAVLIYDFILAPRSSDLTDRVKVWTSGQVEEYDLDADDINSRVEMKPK

[2] = target: T2, AQP1 (Aquaporin1) (human (endogenous in breast cancer tissue)) (UniProt P29972); assay: co-IP; lysates of breast cancer tissues in Co-IP lysis buffer (pH 7.4), 4 °C; western blot
T2 sequence: T1 sequence

binding [1]: binds | binding [2]: binds
Substance: β-catenin (from UniProt P35222 1-781)
